Reference: doi:10.1101/2022.06.27.497790
No constants are given. Whether binding was seen depends on the method and setting. In cells and extracts the contact can be indirect. These calls come from enrichment with a bait or labelling near it, and not all partners need be listed. Tags and fused reporters may be left off the sequences shown.

T1: Hspa13^Flag (human (cDNA from HEK293T)), P48723
T1 chain: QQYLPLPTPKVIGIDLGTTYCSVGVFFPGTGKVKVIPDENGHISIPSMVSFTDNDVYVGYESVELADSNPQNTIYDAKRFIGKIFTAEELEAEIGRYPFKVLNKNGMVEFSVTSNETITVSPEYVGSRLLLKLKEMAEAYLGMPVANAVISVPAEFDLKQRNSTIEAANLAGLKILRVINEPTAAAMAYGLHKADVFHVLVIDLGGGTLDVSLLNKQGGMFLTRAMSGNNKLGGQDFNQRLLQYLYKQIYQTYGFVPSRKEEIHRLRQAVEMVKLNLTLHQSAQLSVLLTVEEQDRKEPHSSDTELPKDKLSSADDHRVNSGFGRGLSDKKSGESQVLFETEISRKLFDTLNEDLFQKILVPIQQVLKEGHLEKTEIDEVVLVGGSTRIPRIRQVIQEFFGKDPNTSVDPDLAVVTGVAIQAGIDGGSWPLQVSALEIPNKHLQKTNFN

T2: Hspa13^Flag (human (cDNA from HEK293T)) (UniProt P48723)
T2 sequence: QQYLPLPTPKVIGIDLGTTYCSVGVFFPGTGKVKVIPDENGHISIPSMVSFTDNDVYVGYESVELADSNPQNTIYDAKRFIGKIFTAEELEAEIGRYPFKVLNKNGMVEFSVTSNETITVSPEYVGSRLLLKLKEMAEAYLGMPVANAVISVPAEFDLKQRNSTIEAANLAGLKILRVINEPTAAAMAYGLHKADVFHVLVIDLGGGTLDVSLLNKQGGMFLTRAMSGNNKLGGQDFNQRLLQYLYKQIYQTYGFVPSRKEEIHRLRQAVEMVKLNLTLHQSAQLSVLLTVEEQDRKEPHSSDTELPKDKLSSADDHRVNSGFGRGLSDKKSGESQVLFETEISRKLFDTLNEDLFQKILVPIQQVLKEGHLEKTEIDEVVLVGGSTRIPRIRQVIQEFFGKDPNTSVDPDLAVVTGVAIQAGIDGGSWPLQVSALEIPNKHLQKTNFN


Tests used:
[1] = target: T1, Hspa13^Flag (human (cDNA from …)); assay: affinity purification with mass spectrometry; settings: remark: other sources report otherwise
[2] = target: T2, Hspa13^Flag (human (cDNA from HEK293T)); assay: affinity purification with mass spectrometry

Binder | binding [1] | binding [2]
HYOU1, Q9Y4L1 33-999 (protein) LAVMSVDLGSESMKVAIVKPGVPMEIVLNKESRRKTPVIVTLKENERFFGDSAASMAIKNPKATLRYFQHLLGKQADNPHVALYQARFPEHELTFDPQRQTVHFQISSQLQFSPEEVLGMVLNYSRSLAEDFAEQPIKDAVITVPVFFNQAERRAVLQAARMAGLKVLQLINDNTATALSYGVFRRKDINTTAQNIMFYDMGSGSTVCTIVTYQMVKTKEAGMQPQLQIRGVGFDRTLGGLEMELRLRERLAGLFNEQRKGQRAKDVRENPRAMAKLLREANRLKTVLSANADHMAQIEGLMDDVDFKAKVTRVEFEELCADLFERVPGPVQQALQSAEMSLDEIEQVILVGGATRVPRVQEVLLKAVGKEELGKNINADEAAAMGAVYQAAALSKAFKVKPFVVRDAVVYPILVEFTREVEEEPGIHSLKHNKRVLFSRMGPYPQRKVITFNRYSHDFNFHINYGDLGFLGPEDLRVFGSQNLTTVKLKGVGDSFKKYPDYESKGIKAHFNLDESGVLSLDRVESVFETLVEDSAEEESTLTKLGNTISSLFGGGTTPDAKENGTDTVQEEEESPAEGSKDEPGEQVELKEEAEAPVEDGSQPPPPEPKGDATPEGEKATEKENGDKSEAQKPSEKAEAGPEGVAPAPEGEKKQKPARKRRMVEEIGVELVVLDLPDLPEDKLAQSVQKLQDLTLRDLEKQEREKAANSLEAFIFETQDKLYQPEYQEVSTEEQREEISGKLSAASTWLEDEGVGATTVMLKEKLAELRKLCQGLFFRVEERKKWPERLSALDNLLNHSSMFLKGARLIPEMDQIFTEVEMTTLEKVINETWAWKNATLAEQAKLPATEKPVLLSKDIEAKMMALDREVQYLLNKAKFTKPRPRPKDKNGTRAEPPLNASASDQGEKVIPPAGQTEDAEPISEPEKVETGSEPGDTEPLELGGPGAEPEQKEQSTGQKRPLKNDEL | binds | –
SEC11A (protein, UniProt P67812 1-179) MLSLDFLDDVRRMNKRQLYYQVLNFGMIVSSALMIWKGLMVITGSESPIVVVLSGSMEPAFHRGDLLFLTNRVEDPIRVGEIVVFRIEGREIPIVHRVLKIHEKQNGHIKFLTKGDNNAVDDRGLYKQGQHWLEKKDVVGRARGFVPYIGIVTILMNDYPKFKYAVLFLLGLFVLVHRE | – | binds

Next, values leading:

binding [1] | binding [2] | Binder
– | binds | SRPRB (protein, UniProt Q9Y5M8 1-271) MASADSRRVADGGGAGGTFQPYLDTLRQELQQTDPTLLSVVVAVLAVLLTLVFWKLIRSRRSSQRAVLLVGLCDSGKTLLFVRLLTGLYRDTQTSITDSCAVYRVNNNRGNSLTLIDLPGHESLRLQFLERFKSSARAIVFVVDSAAFQREVKDVAEFLYQVLIDSMGLKNTPSFLIACNKQDIAMAKSAKLIQQQLEKELNTLRVTRSAAPSTLDSSSTAPAQLGKKGKEFEFSQLPLKVEFLECSAKGGRGDVGSADIQDLEKWLAKIA
– | binds | SEC11C (protein, UniProt Q9BY50 1-192) MVRAGAVGAHLPASGLDIFGDLKKMNKRQLYYQVLNFAMIVSSALMIWKGLIVLTGSESPIVVVLSGSMEPAFHRGDLLFLTNFREDPIRAGEIVVFKVEGRDIPIVHRVIKVHEKDNGDIKFLTKGDNNEVDDRGLYKEGQNWLEKKDVVGRARGFLPYVGMVTIIMNDYPKFKYALLAVMGAYVLLKRES
– | binds | ZMPSTE24 (protein, UniProt O75844 1-475) MGMWASLDALWEMPAEKRIFGAVLLFSWTVYLWETFLAQRQRRIYKTTTHVPPELGQIMDSETFEKSRLYQLDKSTFSFWSGLYSETEGTLILLFGGIPYLWRLSGRFCGYAGFGPEYEITQSLVFLLLATLFSALTGLPWSLYNTFVIEEKHGFNQQTLGFFMKDAIKKFVVTQCILLPVSSLLLYIIKIGGDYFFIYAWLFTLVVSLVLVTIYADYIAPLFDKFTPLPEGKLKEEIEVMAKSIDFPLTKVYVVEGSKRSSHSNAYFYGFFKNKRIVLFDTLLEEYSVLNKDIQEDSGMEPRNEEEGNSEEIKAKVKNKKQGCKNEEVLAVLGHELGHWKLGHTVKNIIISQMNSFLCFFLFAVLIGRKELFAAFGFYDSQPTLIGLLIIFQFIFSPYNEVLSFCLTVLSRRFEFQADAFAKKLGKAKDLYSALIKLNKDNLGFPVSDWLFSMWHYSHPPLLERLQALKTMKQH
